PubChem BioAssay AID1671195, Yale University – 2021
Here is one part, drawn at random, of about 22,000 reagents tested. Of all reagents, about 1,510 (6.9%) are marked active. 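Active includes knockdowns raising or lowering LDL uptake; positive z-scores mean more uptake, negative mean less.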 A number with no mark means an inactive call.

Assay: 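Knockdowns that increase or decrease uptake of fluorescent LDL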 (primary screen)
System: human Huh7 hepatoma cells
Reagents: siRNA pool against human genes, 18 nM
Duration: about 2 to 2.5 days of knockdown, then 8 h LDL uptake
Challenge: DiI-labelled LDL at 30 µg/ml for 8 h, in lipoprotein-deficient serum medium
Measured: 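Fluorescent LDL signal imaged in cells, scaled to the plate median, robust z-score for each replicate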
Scale: robust z-score: higher = more LDL uptake after knockdown
Rule for the call: 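Active when two or more replicates show a robust z-score above 2 or below -2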

| target | robust z-score, replicate 1 | robust z-score, replicate 2 | robust z-score, replicate 3 |
| --- | --- | --- | --- |
| THADA (GeneID 63892) | 2.24 (active) | 2.35 | 1.43 |
| PLA1A (GeneID 51365) | -1.77 | -1.71 | -1.95 |
| CPSF7 (GeneID 79869) | -0.185 | -0.39 | -0.393 |
| VEPH1 (GeneID 79674) | 0.179 | -0.535 | 0.0708 |
| SEC61B (GeneID 10952) | -2.96 | -0.517 | -1.31 |
| GPR15LG (GeneID 387695) | -0.343 | 0.143 | -0.0958 |
| SOWAHD (GeneID 347454) | -0.0539 | -0.21 | 0.155 |
| OR1L6 (GeneID 392390) | -1.06 | -0.431 | -0.118 |
| SYT10 (GeneID 341359) | -2.32 (active) | -2.66 | -2.32 |
| RPL23P8 (GeneID 222901) | -1.63 | -1.57 | -1.41 |
| CBY1 (GeneID 25776) | -0.556 | -0.806 | -1.67 |
| CD163L1 (GeneID 283316) | -0.53 | 0.105 | -0.61 |
| TMEM171 (GeneID 134285) | -0.176 | 0.281 | -0.285 |
| LOC388727 (retired record) (GeneID 388727) | 0.0535 | -0.236 | -0.353 |
| HDAC10 (GeneID 83933) | -0.346 | 0.0237 | -0.505 |
| PRDM10-DT (GeneID 440072) | 1.43 | 1.58 | 0.866 |
| TTC39A (GeneID 22996) | 1.52 | 0.142 | 1.15 |
| AADACL4 (GeneID 343066) | 0.0657 | 0.46 | -0.309 |
| LINC02393 (GeneID 400087) | -0.729 | -1.33 | -1.54 |
| LOC441648 (retired record) (GeneID 441648) | -0.551 | -0.366 | -0.0975 |
| NBN (GeneID 4683) | 1.29 | 1.34 | 0.967 |
| LOC388643 (retired record) (GeneID 388643) | 1.49 (active) | 2.06 | 1.91 |
| SMDT1 (GeneID 91689) | 0.185 | 0.535 | 0.11 |
| BACH1 (GeneID 571) | 1.48 (active) | 1.91 | 3.04 |
| LOC439997 (retired record) (GeneID 439997) | 0.303 | 0.924 | 0.269 |
| TIMELESS (GeneID 8914) | -0.517 | -1.16 | -0.553 |
| GVINP1 (GeneID 387751) | -0.8 | -0.737 | -0.599 |
| POC5 (GeneID 134359) | 0.197 | 0.648 | 0.158 |
| CHGA (GeneID 1113) | 0.901 | 1.05 | 1.8 |
| TBC1D8 (GeneID 11138) | 1.97 (active) | 2.34 | 1.89 |
| POLL (GeneID 27343) | 1.03 | 0.201 | 0.893 |
| LOC442313 (retired record) (GeneID 442313) | -0.98 | -0.593 | -0.98 |
| FBXO10 (GeneID 26267) | 1.42 | 1.51 | 2.64 |
| NBPF12 (GeneID 149013) | -0.766 | -0.552 | -0.869 |
| SOST (GeneID 50964) | -0.205 | 0.0385 | -1.06 |
| SPRN (GeneID 503542) | -1.9 (active) | -2.17 | -1.82 |
| APPL1 (GeneID 26060) | 1.73 | 1.53 | 1.84 |
| LOC389651 (retired record) (GeneID 389651) | -0.251 | -0.0871 | 0.0115 |
| RRN3P1 (GeneID 730092) | 0.0329 | 0.318 | 0.782 |
| OR10Z1 (GeneID 128368) | 0.63 | 0.261 | 0.727 |
| FBXW4 (GeneID 6468) | -0.577 | -1.71 | -1.51 |
| KRTAP5-5 (GeneID 439915) | 0.0291 | -1.06 | -0.323 |
| FAM174B (GeneID 400451) | 0.185 | 1.01 | 0.878 |
| COL24A1 (GeneID 255631) | 2.61 (active) | 2.78 | 3.14 |
| CLDN7 (GeneID 1366) | 0.226 | 0.444 | 0.642 |
| MSRB3 (GeneID 253827) | -0.328 | -0.506 | -0.541 |

Next part; the last 12 above are carried over.
| target | robust z-score, replicate 1 | robust z-score, replicate 2 | robust z-score, replicate 3 |
| --- | --- | --- | --- |
| SOST (GeneID 50964) | -0.205 | 0.0385 | -1.06 |
| SPRN (GeneID 503542) | -1.9 (active) | -2.17 | -1.82 |
| APPL1 (GeneID 26060) | 1.73 | 1.53 | 1.84 |
| LOC389651 (retired record) (GeneID 389651) | -0.251 | -0.0871 | 0.0115 |
| RRN3P1 (GeneID 730092) | 0.0329 | 0.318 | 0.782 |
| OR10Z1 (GeneID 128368) | 0.63 | 0.261 | 0.727 |
| FBXW4 (GeneID 6468) | -0.577 | -1.71 | -1.51 |
| KRTAP5-5 (GeneID 439915) | 0.0291 | -1.06 | -0.323 |
| FAM174B (GeneID 400451) | 0.185 | 1.01 | 0.878 |
| COL24A1 (GeneID 255631) | 2.61 (active) | 2.78 | 3.14 |
| CLDN7 (GeneID 1366) | 0.226 | 0.444 | 0.642 |
| MSRB3 (GeneID 253827) | -0.328 | -0.506 | -0.541 |
| NIPAL1 (GeneID 152519) | 0.529 | 0.493 | 0.486 |
| PIK3R6 (GeneID 146850) | -1.02 | -0.919 | -1.38 |
| ZNF438 (GeneID 220929) | 0.361 | 0.128 | 0.156 |
| RHD (GeneID 6007) | 1.41 (active) | 3.04 | 2.03 |
| TBCK (GeneID 93627) | -1.46 (active) | -2.19 | -2.26 |
| MMRN1 (GeneID 22915) | -0.866 | -0.00171 | -0.0108 |
| KISS1R (GeneID 84634) | 1.6 | 0.574 | 0.754 |
| NHSL3 (GeneID 57648) | -0.148 | -1.12 | -1.2 |
| LRRFIP1 (GeneID 9208) | -0.533 | 0.289 | -0.13 |
| CALM2 (GeneID 805) | 1.45 | 1.32 | 2.06 |
| C16orf54 (GeneID 283897) | 0.52 | 0.745 | 0.514 |
| MLH3 (GeneID 27030) | 1.48 | 1.01 | 1.14 |
| SRGAP2C (GeneID 653464) | -0.939 | -1.15 | -1.03 |
| LOC442093 (retired record) (GeneID 442093) | 1.61 | 1.66 | 2.06 |
| CYP2R1 (GeneID 120227) | 0.42 | 0.777 | 0.706 |
| DALRD3 (GeneID 55152) | 0.282 | -0.0404 | 1.6 |
| SOX14 (GeneID 8403) | 1.63 | 1.32 | 1.51 |
| PTCHD1 (GeneID 139411) | 0.812 | 1.06 | 1.49 |
| SAP30L-AS1 (GeneID 386627) | -1.26 | -1.19 | -1.93 |
| PLAC1 (GeneID 10761) | -0.076 | -0.653 | -1.58 |
| LOC442331 (retired record) (GeneID 442331) | 0.811 | 0.675 | 0.26 |
| LOC285047 (retired record) (GeneID 285047) | 0.574 | 0.2 | -0.0535 |
| GOLGA8A (GeneID 23015) | -0.479 | 2.28 | -1.17 |
| NRF1 (GeneID 4899) | 0.356 | -0.051 | -0.128 |
| LOC440127 (retired record) (GeneID 440127) | -0.321 | -0.458 | -0.481 |
| KCTD16 (GeneID 57528) | -0.77 | -1.04 | -1.13 |
| PHOX2A (GeneID 401) | 0.211 | -0.463 | 0.89 |
| TMEM160 (GeneID 54958) | -0.186 | -0.131 | 1.61 |
| MPV17 (GeneID 4358) | -0.897 | -0.384 | -0.425 |
| BCAS1 (GeneID 8537) | 2.94 (active) | 1.1 | 2.58 |
| TRAF3IP3 (GeneID 80342) | 0.0716 | -0.00993 | -0.229 |
| PYGB (GeneID 5834) | -0.858 | -0.562 | -0.443 |
| FAM27E5 (GeneID 284123) | 0.2 | 1.02 | 0.819 |
| ABCF1 (GeneID 23) | -0.256 | 0.221 | -0.413 |
| FRRS1 (GeneID 391059) | -2.01 (active) | -1.97 | -2.37 |
| LOC399924 (retired record) (GeneID 399924) | -1.05 | -1.37 | -1.32 |
| SMIM9 (GeneID 100132963) | -0.9 | -0.679 | -0.862 |
| ZNF234 (GeneID 10780) | 0.0862 | -0.349 | 0.447 |
| WFDC5 (GeneID 149708) | -0.873 | -1.71 | -1.52 |
| SEC14L3 (GeneID 266629) | 0.603 | 0.473 | 0.64 |
| ZNF219 (GeneID 51222) | 0.681 | 0.0396 | -0.469 |
